Record: PubChem BioAssay AID1259405 (NCATS, 2018)

- Purpose: 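Mouse-designed siRNAs used to find CHO productivity engineering targets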 (primary screen)
- System: Chinese hamster CHO-K1 ovary cells with stable secreted eGFP expression
- Knock-down reagent: single siRNA against mouse genes, 0.8 pmol siRNA per well (2 µl of 400 nM stock)
- Duration: 3 days
- Detection: 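Percent of the per-plate non-targeting control median for intracellular GFP per well by laser scanning cytometry and for cell viability by ATP luminescence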
- Scale: GFP, % of control: higher = more GFP per well, higher productivity; viability (ATP), % of control: higher = more viable cells (more ATP)
- Active means: 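a knock-down is called active if GFP reaches 120% or more of non-targeting control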
Here is an unselected part of about 50,000 reagents tested. Of all reagents, about 4,000 (8%) got an active call. 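Mouse siRNA library applied to hamster cells; one well for each siRNA.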 A number with no mark means an inactive call. No sequences are given here.

no.	target	PubChem SID	GFP, % of control	viability (ATP), % of control
1	Limd1	SID363584479	64.9	75.8
2	Limd1	SID363589509	201 (active)	144
3	Taf6l	SID363573571	61.2	77.2
4	Taf6l	SID363581315	65	46.1
5	Taf6l	SID363583779	79	90.4
6	Trappc4	SID363582548	127 (active)	120
7	Trappc4	SID363584308	78.2	84
8	Hoatz	SID363542292	56.3	38.1
9	Hoatz	SID363551783	85.7	44.4
10	Hoatz	SID363559388	82.9	70.9
11	Aox4	SID363546697	96.6	110
12	Aox4	SID363548453	111	115
13	Aox4	SID363560631	116	88.1
14	Mettl3	SID363545868	97.4	64.1
15	Mettl3	SID363549381	64.5	49.2
16	Mettl3	SID363563187	53.4	56.8
17	Rfc1	SID363569170	87.8	91.4
18	Rfc1	SID363583602	80	98.8
19	Dpp9	SID363574383	65.4	98.6
20	Dpp9	SID363575439	188 (active)	66.2
21	Dpp9	SID363580015	77.3	76.7
22	St3gal3	SID363545279	14.2	14.1
23	St3gal3	SID363548792	65.7	68.6
24	St3gal3	SID363562598	39.3	66.1
25	Rell2	SID363542582	119	45.6
26	Rell2	SID363552073	126 (active)	64.8
27	Rell2	SID363559678	115	82.2
28	Sesn1	SID363544831	75.7	65.9
29	Sesn1	SID363551159	67.3	89.5
30	Sesn1	SID363557708	52	65.1
31	Gys1	SID363570391	128 (active)	105
32	Gys1	SID363579191	77.4	68.3
33	Gys1	SID363583063	98	117
34	Terf2ip	SID363568961	67.2	71.8
35	Terf2ip	SID363583393	64.7	85.3
36	Slc12a2	SID363574882	92	81.3
37	Slc12a2	SID363575938	67.9	66.4
38	Slc12a2	SID363580514	89.7	66.7

Reformatted: 5 of the entries above.
Aox4 [SID363546697]
- GFP, % of control: 96.6
- viability (ATP), % of control: 110

Aox4 [SID363548453]
- GFP, % of control: 111
- viability (ATP), % of control: 115

Aox4 [SID363560631]
- GFP, % of control: 116
- viability (ATP), % of control: 88.1

Mettl3 [SID363545868]
- GFP, % of control: 97.4
- viability (ATP), % of control: 64.1

Mettl3 [SID363549381]
- GFP, % of control: 64.5
- viability (ATP), % of control: 49.2

The list goes on.
no.	target	PubChem SID	GFP, % of control	viability (ATP), % of control
39	BC016548	SID363547113	69	61.3
40	BC016548	SID363549925	56	105
41	BC016548	SID363587979	105	98.7
42	Commd4	SID363550318	57	90.9
43	Commd4	SID363564827	148 (active)	89.2
44	Commd4	SID363588372	106	84.9
45	Dhdds	SID363570553	86.1	93
46	Dhdds	SID363579353	65.4	113
47	Dhdds	SID363583225	86.2	96.3
48	Pf4	SID363541405	82.9	103
49	Pf4	SID363556032	69.4	101
50	Pf4	SID363566321	77	68.6
51	Sertad1	SID363554830	203 (active)	101
52	Sertad1	SID363568277	78.4	59.1
53	Sertad1	SID363586336	92.2	96.6
54	Lmo2	SID363573585	90.6	105
55	Lmo2	SID363581329	83.4	73
56	Lmo2	SID363583793	69.3	79.2
57	Or4b1c	SID363554115	75.2	78.4
58	Or4b1c	SID363567562	35.8	43.8
59	Or4b1c	SID363584919	62.7	93.6
